Measurements: paper PMC2134951
No constants are given. Whether binding was seen depends on the method and setting. In cells and extracts the contact can be indirect. Some entries that bind do so weakly or less than the wild type.

Chains of the proteins cited; added tags and fusions are not shown. Lines headed by an entry give the natural chain unless they say otherwise; changes in a name come on top.
UniProt Q5ZS31: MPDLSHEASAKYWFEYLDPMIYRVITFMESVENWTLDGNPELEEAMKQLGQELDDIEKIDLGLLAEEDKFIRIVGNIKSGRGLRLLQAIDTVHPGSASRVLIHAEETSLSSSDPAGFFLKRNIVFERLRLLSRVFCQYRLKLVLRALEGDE
UniProt Q6RCQ6: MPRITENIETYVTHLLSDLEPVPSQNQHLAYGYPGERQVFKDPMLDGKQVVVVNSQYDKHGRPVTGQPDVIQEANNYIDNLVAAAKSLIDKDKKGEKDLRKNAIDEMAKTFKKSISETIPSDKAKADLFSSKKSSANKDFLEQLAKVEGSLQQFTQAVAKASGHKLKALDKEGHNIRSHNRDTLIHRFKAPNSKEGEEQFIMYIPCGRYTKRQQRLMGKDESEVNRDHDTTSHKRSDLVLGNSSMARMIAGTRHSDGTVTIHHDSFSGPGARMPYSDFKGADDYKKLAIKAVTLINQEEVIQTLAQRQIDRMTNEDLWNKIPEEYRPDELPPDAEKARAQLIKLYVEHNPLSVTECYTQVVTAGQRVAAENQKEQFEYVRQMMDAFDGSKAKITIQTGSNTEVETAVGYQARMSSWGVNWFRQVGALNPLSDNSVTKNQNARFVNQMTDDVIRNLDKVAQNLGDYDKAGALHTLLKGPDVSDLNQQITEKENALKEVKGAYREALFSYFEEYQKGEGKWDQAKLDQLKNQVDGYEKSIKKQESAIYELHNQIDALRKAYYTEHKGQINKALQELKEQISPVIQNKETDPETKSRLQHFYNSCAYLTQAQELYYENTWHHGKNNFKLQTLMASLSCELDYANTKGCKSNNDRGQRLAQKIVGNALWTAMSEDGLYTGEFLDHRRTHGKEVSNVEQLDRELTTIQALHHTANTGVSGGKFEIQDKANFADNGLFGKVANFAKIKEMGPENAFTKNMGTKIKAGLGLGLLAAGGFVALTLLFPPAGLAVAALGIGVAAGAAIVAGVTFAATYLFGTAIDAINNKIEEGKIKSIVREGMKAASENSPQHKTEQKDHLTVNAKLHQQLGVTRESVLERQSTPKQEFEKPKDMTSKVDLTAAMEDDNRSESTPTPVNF

Molecular target: H6IcmW/IcmS complex (L. pneumophila) (UniProt Q5ZS31)
Experiment: pull-down

## SidF (from UniProt Q6RCQ6 1-912)
  binding: binds
